# Laboratory results reported in article PMC12431657, “Discovery and mechanistic insights of dibenzoylmethane as a broad spectrum inhibitor of coronavirus” (PLOS Pathogens, 2025).
# Counter-ions that a name gives are not always drawn. Like-named read-outs stand apart in the source and are kept apart here. The campaign covered roughly 3,300 compounds. About 95 (3%) showed an effect of 50% or more. Some of the results follow.
# Tested on: HCoV-229E
# Parameters: species or system Huh-7; HTS, protection from HCoV-229E induced cell death, luminescent cell viability (CellCounting-Lite 2.0), inhibition rate
# Settings: 24 h post infection, 1 h compound pre-incubation, 10 µM, inhibitor
Structure (SMILES),229E Inhibition rate,"229E Inhibition rate (229E Inhibition rate, 24 h)"
Nc1nc(N)c(O[C@@H]2O[C@H](CO)[C@@H](O)[C@H](O)[C@H]2O)c(=O)[nH]1 [Vicine],9%,–
C[C@]12CC[C@@H]3c4ccc(O)cc4CC[C@H]3[C@@H]1CCC2=O [Estrone],34.3%,–
O=C1C=CCO1 [2(5H)-Furanone],8.7%,–
OC1CCN2Cc3ccccc3N=C12 (racemic) [(±)-Vasicine],9.2%,–
COC(=O)C1CCCCC1 [Methyl cyclohexanecarboxylate],16.8%,–
O=C1c2ccccc2C(=O)c2c(O)cccc21 [1-Hydroxyanthraquinone],21.2%,–
CN(C)[C@@H]1C(O)=C(C(N)=O)C(=O)[C@@]2(O)C(O)=C3C(=O)c4c(O)ccc(Cl)c4[C@@](C)(O)[C@H]3C[C@@H]12 [Chlortetracycline (hydrochloride)],15.2%,–
COC(=O)Cc1ccc(C(C)(C)C)cc1 [Methyl p-tert-butylphenylacetate],0%,–
N[C@@H](CCC(=O)O)C(=O)O [L-Glutamic acid (monosodium salt)],–,12%
COc1cc(O)cc(O)c1C(=O)/C=C/c1ccc(O)cc1 [Helichrysetin],44.2%,–
CC(C)=CCC/C(C)=C/COc1c2occc2cc2ccc(=O)oc12 [8-Geranyloxypsoralen],39.1%,–
COc1cc(CCC(C)=O)ccc1O [Zingerone],15.2%,–
CCCC[C@@H]1OC(=O)C2=C1CCC=C2 [Senkyunolide A],19.4%,–
COc1ccccc1O [Guaiacol],13.6%,–
O=C(O)CCCC(O)C(=O)O (centres unmarked) [2-Hydroxyadipic acid],14.9%,–
O=C(/C=C/c1ccc(O[C@@H]2O[C@H](CO)[C@@H](O)[C@H](O)[C@H]2O)cc1)c1ccc(O)cc1O [Isoliquiritin],27.7%,–
CCOC(=O)C1=C[C@]2(CC)CCCN3CCc4c(n1c1ccccc41)[C@@H]32 [Vinpocetine],50%,–
O=C(O)[C@@H]1CCCN1 [L-Proline],14.9%,–
Cn1c(=O)ccn([C@@H]2O[C@H](CO)[C@@H](O)[C@H]2O)c1=O [3-Methyluridine],46.6%,–
O=C(O)C1CSSC1 [Asparagusic acid],15.6%,–
CC1(C)CC[C@]2(C(=O)O)CC[C@]3(C)C(=CC[C@@H]4[C@@]5(C)C[C@H](O)[C@H](O)[C@@](C)(CO)[C@@H]5CC[C@]43C)[C@@H]2C1 [Bayogenin],12.7%,–

Structure (SMILES),229E Inhibition rate,"229E Inhibition rate (229E Inhibition rate, 24 h)"
C=C1[C@H]2CC[C@@H]3[C@H]2C(C)(C)CCC[C@]13C [(+)-Longifolene],0%,–
O=C(O)C[C@@H]1C(=O)O[C@H]2[C@H](OC(=O)c3cc(O)c(O)c(O)c3)[C@@H](OC(=O)c3cc(O)c(O)c4c3[C@H]1[C@@H](O)C(=O)O4)[C@H](OC(=O)c1cc(O)c(O)c(O)c1)O[C@@H]2COC(=O)c1cc(O)c(O)c(O)c1 [Chebulinic acid],6.2%,–
CN[C@H]1C[C@@H](N)[C@H](O)[C@@H](O[C@@H]2O[C@H](CO)[C@H](O)[C@@H]3OC4(O[C@H]23)O[C@H]([C@@H](N)CO)[C@H](O)[C@H](O)[C@H]4O)[C@@H]1O (some centres unmarked) [Hygromycin B],47.6%,–
Nc1nc(=O)c2c([nH]1)NC[C@@H](CNc1ccc(C(=O)N[C@@H](CCC(=O)O)C(=O)O)cc1)N2C=O [Folinic acid],23%,–
C[N+](C)(C)[O-] [Trimethylamine N-oxide (dihydrate)],–,14.1%
CCCCCCCCCCCCCCCCCCCO [1-Nonadecanol],26.2%,–
CC(C)(c1ccc(O)cc1)c1ccc(O)cc1 [Bisphenol A],30.1%,–
O=C(O)CC(O)(CC(=O)OCc1ccc(O[C@@H]2O[C@H](CO)[C@@H](O)[C@H](O)[C@H]2O)cc1)C(=O)O (some centres unmarked) [Parishin E],5.9%,–
C[C@H](CC[C@@H](O[C@@H]1O[C@H](CO[C@@H]2O[C@H](CO)[C@@H](O)[C@H](O)[C@H]2O)[C@@H](O)[C@H](O)[C@H]1O)C(C)(C)O)[C@H]1CC[C@@]2(C)[C@@H]3CC=C4[C@@H](CC[C@H](O[C@@H]5O[C@H](CO)[C@@H](O)[C@H](O)[C@H]5O)C4(C)C)[C@]3(C)[C@H](O)C[C@]12C [Mogroside III],27.4%,–
COc1ccc2[nH]cc(CCO)c2c1 [5-Methoxytryptophol],10%,–
CC/C=C\C/C=C\C/C=C\C/C=C\C/C=C\CCCCCC(=O)O [Docosapentaenoic acid (22n-3)],11.1%,–
COc1ccc(-c2coc3cc(O[C@@H]4O[C@H](CO[C@@H]5OC[C@@H](O)[C@H](O)[C@H]5O)[C@@H](O)[C@H](O)[C@H]4O)c(OC)c(O)c3c2=O)cc1 [Kakkalide],6.1%,–
C[C@H](CC[C@@H](O)C(C)(C)O)[C@H]1CC[C@@]2(C)[C@@H]3CC=C4[C@@H](CC[C@H](O[C@@H]5O[C@H](CO)[C@@H](O)[C@H](O)[C@H]5O)C4(C)C)[C@]3(C)[C@H](O)C[C@]12C [Mogroside I E1],8.2%,–
C[C@]12CC[C@@H]3c4ccc(OS(=O)(=O)O)cc4CC[C@H]3[C@@H]1CCC2=O [Estrone sulfate (sodium)],–,33%
C[C@@]12C[C@@]3(O)O[C@@H](O1)[C@]1(COC(=O)c4ccccc4)[C@H]3C[C@@]12O[C@@H]1O[C@H](CO)[C@@H](O)[C@H](O)[C@H]1O [Paeoniflorin],6.8%,–
Cc1coc2c1C(=O)C(=O)c1c-2ccc2c(C)cccc12 [Tanshinone I],10.2%,–
COc1cc(/C=C/c2ccccc2)oc(=O)c1 [Desmethoxyyangonin],12%,–
CCCCCC/C=C/CCCCCCCCCC(=O)O [trans-Vaccenic acid],36.5%,–
Sc1nc2ccccc2s1 [2-Mercaptobenzothiazole],0%,–
O=C(O)CNC(=O)c1cccnc1 [Nicotinuric acid],15.7%,–

# Record cards, as listed above. Order of values: 229E Inhibition rate	229E Inhibition rate (229E Inhibition rate, 24 h)
# Sc1nc2ccccc2s1 [2-Mercaptobenzothiazole] is listed as 0%	–
# CC(C)(c1ccc(O)cc1)c1ccc(O)cc1 [Bisphenol A] is listed as 30.1%	–
